# Experimental data reported in the supplement of paper PMC8728848.
# The list shows a part of the results.
# B1: Layilin (Mus musculus), Q8C351 (protein)
# chain: MQPGAALQAMLLAVLLAKPRDSKGRLLSASDLDPRGGQLVCRGGTRRPCYKVIYFHDAFQRLNFEEAKETCMEDGGQLVSIETEDEQRLIEKFIENLLASDGDFWIGLKRLEEKQSNNTACQDLYAWTDGSTSQFRNWYVDEPSCGSEVCVVMYHQPSAPPGIGGSYMFQWNDDRCNMKNNFICKYHDDKPSTTPSIWPGGEATEPATPLLPEETQKEDTKETFKERREAALNLAYILIPSIPLFLLLVVTSAVCWVWICRRKREQTDPSTKEQHTIWPTPRQENSPNLDVYNVIRKQSEADLAEPRPDLKNISFRVCSGEAMPDDMSCDYENIAVNPSESGFVTLASMESGFVTNDIYEFSPDRMGRSKESGWVENEIYY
# What was measured:
# Test in all cases: glycan array binding signal (z-score within array); higher = stronger binding
# Conditions in all cases: glycan notation: IUPAC condensed, linker removed
# [1] = biological target: Gal(b1-4)GalNAc(a1-3)[Fuc(a1-2)]Gal(b1-4)GlcNAc
# How it was run: (§1)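 Glycan array binding is given as a within-array Z-score, which can be read as non-binding when negative. The arrays, 3228 of them, came from the Consortium for Functional Glycomics database and were retained only where the protein sequence was available. Z-scores were averaged across arrays of the same protein sequence at different concentrations or buffers and across linkers.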
# [2] = biological target: Gal(b1-4)GalNAc(b1-3)[Fuc(a1-2)]Gal(b1-4)GlcNAc
# How it was run: as §1
# Gal(b1-4)Glc = biological target: Gal(b1-4)Glc
# How it was run: as §1
# Gal(b1-4)Glc6S = biological target: Gal(b1-4)Glc6S
# How it was run: as §1
# Gal(b1-4)GlcNAc = biological target: Gal(b1-4)GlcNAc
# How it was run: as §1
# [3] = biological target: Gal(b1-4)GlcNAc(a1-6)Gal(b1-4)GlcNAc
# How it was run: as §1
# Gal(b1-4)GlcNAc(b1-2)Man = biological target: Gal(b1-4)GlcNAc(b1-2)Man
# How it was run: as §1
# [4] = biological target: Gal(b1-4)GlcNAc(b1-2)Man(a1-3)Man(b1-4)GlcNAc(b1-4)GlcNAc
# How it was run: as §1
# [5] = biological target: Gal(b1-4)GlcNAc(b1-2)Man(a1-3)[Gal(b1-4)GlcNAc(b1-2)Man(a1-6)]Man(b1-4)GlcNAc(b1-4)GlcNAc
# How it was run: as §1
# [6] = biological target: Gal(b1-4)GlcNAc(b1-2)Man(a1-3)[Gal(b1-4)GlcNAc(b1-2)Man(a1-6)]Man(b1-4)GlcNAc(b1-4)[Fuc(a1-6)]GlcNAc
# How it was run: as §1
# [7] = biological target: Gal(b1-4)GlcNAc(b1-2)Man(a1-3)[Gal(b1-4)GlcNAc(b1-2)][GlcNAc(b1-4)]Man(b1-4)GlcNAc(b1-4)GlcNAc
# How it was run: as §1
# [8] = biological target: Gal(b1-4)GlcNAc(b1-2)Man(a1-3)[GlcNAc(b1-2)Man(a1-6)]Man(b1-4)GlcNAc(b1-4)GlcNAc
# How it was run: as §1
# [9] = biological target: Gal(b1-4)GlcNAc(b1-2)Man(a1-3)[Man(a1-6)]Man(b1-4)GlcNAc(b1-4)GlcNAc
# How it was run: as §1
# [10] = biological target: Gal(b1-4)GlcNAc(b1-2)Man(a1-6)Man(b1-4)GlcNAc(b1-4)GlcNAc
# How it was run: as §1
# [11] = biological target: Gal(b1-4)GlcNAc(b1-2)Man(a1-6)[GlcNAc(b1-2)Man(a1-3)]Man(b1-4)GlcNAc(b1-4)GlcNAc
# How it was run: as §1
# [12] = biological target: Gal(b1-4)GlcNAc(b1-2)Man(a1-6)[Man(a1-3)]Man(b1-4)GlcNAc(b1-4)GlcNAc
# How it was run: as §1
# [13] = biological target: Gal(b1-4)GlcNAc(b1-2)[Gal(b1-4)GlcNAc(b1-4)]Man(a1-3)[Gal(b1-4)GlcNAc(b1-2)Man(a1-6)]Man(b1-4)GlcNAc(b1-4)GlcNAc
# How it was run: as §1
# [14] = biological target: Gal(b1-4)GlcNAc(b1-2)[Gal(b1-4)GlcNAc(b1-4)]Man(a1-3)[Gal(b1-4)GlcNAc(b1-2)[Gal(b1-4)GlcNAc(b1-6)]Man(a1-6)]Man(b1-4)GlcNAc(b1-4)GlcNAc
# How it was run: as §1
# [15] = biological target: Gal(b1-4)GlcNAc(b1-2)[Gal(b1-4)GlcNAc(b1-4)]Man(a1-3)[GlcNAc(b1-4)][Gal(b1-4)GlcNAc(b1-2)Man(a1-6)]Man(b1-4)GlcNAc(b1-4)GlcNAc
# How it was run: as §1
# [16] = biological target: Gal(b1-4)GlcNAc(b1-2)[Gal(b1-4)GlcNAc(b1-4)]Man(a1-3)[GlcNAc(b1-4)][Gal(b1-4)GlcNAc(b1-2)[Gal(b1-4)GlcNAc(b1-6)]Man(a1-6)]Man(b1-4)GlcNAc(b1-4)GlcNAc
# How it was run: as §1
# [17] = biological target: Gal(b1-4)GlcNAc(b1-2)[Gal(b1-4)GlcNAc(b1-6)]Man(a1-6)[Gal(b1-4)GlcNAc(b1-2)Man(a1-3)]Man(b1-4)GlcNAc(b1-4)GlcNAc
# How it was run: as §1
# [18] = biological target: Gal(b1-4)GlcNAc(b1-2)[Gal(b1-4)GlcNAc(b1-6)]Man(a1-6)[GlcNAc(b1-4)][Gal(b1-4)GlcNAc(b1-2)Man(a1-3)]Man(b1-4)GlcNAc(b1-4)GlcNAc
# How it was run: as §1
# [19] = biological target: Gal(b1-4)GlcNAc(b1-3)Gal(b1-3)GlcNAc
# How it was run: as §1
# [20] = biological target: Gal(b1-4)GlcNAc(b1-3)Gal(b1-4)Glc
# How it was run: as §1
# [21] = biological target: Gal(b1-4)GlcNAc(b1-3)Gal(b1-4)GlcNAc
# How it was run: as §1
# [22] = biological target: Gal(b1-4)GlcNAc(b1-3)Gal(b1-4)GlcNAc(b1-3)Gal(b1-4)GlcNAc
# How it was run: as §1
# [23] = biological target: Gal(b1-4)GlcNAc(b1-3)Gal(b1-4)[Fuc(a1-3)GlcNAc(b1-6)]Gal(b1-4)Glc
# How it was run: as §1
# [24] = biological target: Gal(b1-4)GlcNAc(b1-3)Gal(b1-4)[Fuc(a1-3)]GlcNAc(b1-3)Gal(b1-4)[Fuc(a1-3)]GlcNAc
# How it was run: as §1
# [25] = biological target: Gal(b1-4)GlcNAc(b1-3)GalNAc
# How it was run: as §1
# [26] = biological target: Gal(b1-4)GlcNAc(b1-3)[Gal(b1-4)GlcNAc(b1-6)]Gal(b1-4)GlcNAc
# How it was run: as §1
# [27] = biological target: Gal(b1-4)GlcNAc(b1-3)[Gal(b1-4)GlcNAc(b1-6)]GalNAc
# How it was run: as §1
# [28] = biological target: Gal(b1-4)GlcNAc(b1-3)[GlcNAc(b1-6)]Gal(b1-4)GlcNAc
# How it was run: as §1
# [29] = biological target: Gal(b1-4)GlcNAc(b1-6)Gal(b1-4)GlcNAc
# How it was run: as §1
# [30] = biological target: Gal(b1-4)GlcNAc(b1-6)GalNAc
# How it was run: as §1
# [31] = biological target: Gal(b1-4)GlcNAc(b1-6)[Gal(b1-3)]GalNAc
# How it was run: as §1
# Gal(b1-6)Gal = biological target: Gal(b1-6)Gal
# How it was run: as §1
# Gal3S(b1-3)GalNAc = biological target: Gal3S(b1-3)GalNAc
# How it was run: as §1
# Gal3S(b1-3)GlcNAc = biological target: Gal3S(b1-3)GlcNAc
# How it was run: as §1
binder,measurement,setting,value
B1,glycan array binding signal (z-score),[1],-0.623
same,glycan array binding signal (z-score),[2],0.059
same,glycan array binding signal (z-score),Gal(b1-4)Glc,-0.041
same,glycan array binding signal (z-score),Gal(b1-4)Glc6S,-0.075
same,glycan array binding signal (z-score),Gal(b1-4)GlcNAc,-0.317
same,glycan array binding signal (z-score),[3],0.234
same,glycan array binding signal (z-score),Gal(b1-4)GlcNAc(b1-2)Man,-0.817
same,glycan array binding signal (z-score),[4],-0.41
same,glycan array binding signal (z-score),[5],-0.504
same,glycan array binding signal (z-score),[6],1.21
same,glycan array binding signal (z-score),[7],-0.483
same,glycan array binding signal (z-score),[8],-1.18
same,glycan array binding signal (z-score),[9],-0.327
same,glycan array binding signal (z-score),[10],-0.753
same,glycan array binding signal (z-score),[11],-0.009
same,glycan array binding signal (z-score),[12],-0.537
same,glycan array binding signal (z-score),[13],0.535
same,glycan array binding signal (z-score),[14],-0.133
same,glycan array binding signal (z-score),[15],-0.669
same,glycan array binding signal (z-score),[16],-0.323
same,glycan array binding signal (z-score),[17],0.083
same,glycan array binding signal (z-score),[18],-0.619
same,glycan array binding signal (z-score),[19],0.562
same,glycan array binding signal (z-score),[20],-0.318
same,glycan array binding signal (z-score),[21],0.267
same,glycan array binding signal (z-score),[22],1.49
same,glycan array binding signal (z-score),[23],-0.248
same,glycan array binding signal (z-score),[24],-0.332
same,glycan array binding signal (z-score),[25],-0.153
same,glycan array binding signal (z-score),[26],0.967
same,glycan array binding signal (z-score),[27],-0.287
same,glycan array binding signal (z-score),[28],0.014
same,glycan array binding signal (z-score),[29],-0.582
same,glycan array binding signal (z-score),[30],-0.296
same,glycan array binding signal (z-score),[31],-0.278
same,glycan array binding signal (z-score),Gal(b1-6)Gal,-0.22
same,glycan array binding signal (z-score),Gal3S(b1-3)GalNAc,-0.76
same,glycan array binding signal (z-score),Gal3S(b1-3)GlcNAc,-0.637

# 2 entries from above, with bars between the fields:
binder | measurement | setting | value
B1 | glycan array binding signal (z-score) | [24] | -0.332
same | glycan array binding signal (z-score) | [25] | -0.153
